According to the supplement of paper PMC12067093, “Discovery and optimisation of a covalent ligand for TRIM25 and its application to targeted protein ubiquitination” (Chemical Science, 2025):
This is one part of the list.

Amino acid sequences for entries named in this document (tags omitted). A change or cut given only in a name is not applied to a line headed by its entry.
UniProt Q9H4A4: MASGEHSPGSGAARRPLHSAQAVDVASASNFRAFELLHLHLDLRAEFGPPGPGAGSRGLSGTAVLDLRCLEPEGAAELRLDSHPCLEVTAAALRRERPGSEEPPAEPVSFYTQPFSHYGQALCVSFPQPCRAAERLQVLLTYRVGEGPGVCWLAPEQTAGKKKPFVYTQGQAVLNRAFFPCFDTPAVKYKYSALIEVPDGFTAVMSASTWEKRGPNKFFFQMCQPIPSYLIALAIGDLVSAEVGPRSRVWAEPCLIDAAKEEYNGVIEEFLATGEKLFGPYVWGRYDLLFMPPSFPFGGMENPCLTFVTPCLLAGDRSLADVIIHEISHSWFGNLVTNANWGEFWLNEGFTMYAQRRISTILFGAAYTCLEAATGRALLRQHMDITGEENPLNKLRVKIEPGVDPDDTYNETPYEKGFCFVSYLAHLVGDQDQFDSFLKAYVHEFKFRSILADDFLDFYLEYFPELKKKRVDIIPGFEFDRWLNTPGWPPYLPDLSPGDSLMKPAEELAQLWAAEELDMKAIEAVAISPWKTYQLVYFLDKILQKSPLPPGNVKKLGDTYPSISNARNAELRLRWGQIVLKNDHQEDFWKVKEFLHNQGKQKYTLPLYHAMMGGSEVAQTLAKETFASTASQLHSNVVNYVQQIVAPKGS
UniProt P04843: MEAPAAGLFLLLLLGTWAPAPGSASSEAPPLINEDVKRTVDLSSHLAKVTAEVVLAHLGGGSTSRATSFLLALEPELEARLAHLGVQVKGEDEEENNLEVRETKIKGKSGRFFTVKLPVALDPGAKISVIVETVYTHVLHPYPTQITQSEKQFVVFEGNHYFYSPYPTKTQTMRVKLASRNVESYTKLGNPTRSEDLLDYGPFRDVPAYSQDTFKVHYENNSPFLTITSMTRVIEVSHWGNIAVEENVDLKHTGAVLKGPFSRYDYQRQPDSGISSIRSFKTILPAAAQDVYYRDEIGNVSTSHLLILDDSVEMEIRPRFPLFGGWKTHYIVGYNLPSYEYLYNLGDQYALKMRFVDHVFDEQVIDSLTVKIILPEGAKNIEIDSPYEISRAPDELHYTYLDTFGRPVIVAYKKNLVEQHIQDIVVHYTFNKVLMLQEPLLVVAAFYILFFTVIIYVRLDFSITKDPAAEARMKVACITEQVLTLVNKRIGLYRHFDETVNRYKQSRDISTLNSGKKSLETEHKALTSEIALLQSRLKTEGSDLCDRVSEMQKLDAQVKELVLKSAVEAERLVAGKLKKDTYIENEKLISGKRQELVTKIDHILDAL
UniProt P13489: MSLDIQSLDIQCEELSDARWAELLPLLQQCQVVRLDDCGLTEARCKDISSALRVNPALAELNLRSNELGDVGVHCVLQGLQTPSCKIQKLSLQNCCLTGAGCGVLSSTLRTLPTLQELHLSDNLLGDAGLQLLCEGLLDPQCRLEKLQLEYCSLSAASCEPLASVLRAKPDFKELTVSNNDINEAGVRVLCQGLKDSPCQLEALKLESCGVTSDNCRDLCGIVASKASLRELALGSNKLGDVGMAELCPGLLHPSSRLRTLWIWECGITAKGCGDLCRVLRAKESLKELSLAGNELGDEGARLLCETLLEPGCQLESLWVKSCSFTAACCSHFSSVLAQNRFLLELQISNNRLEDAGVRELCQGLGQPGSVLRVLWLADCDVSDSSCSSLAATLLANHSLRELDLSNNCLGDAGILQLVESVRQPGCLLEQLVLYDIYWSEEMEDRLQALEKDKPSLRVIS
UniProt P78346: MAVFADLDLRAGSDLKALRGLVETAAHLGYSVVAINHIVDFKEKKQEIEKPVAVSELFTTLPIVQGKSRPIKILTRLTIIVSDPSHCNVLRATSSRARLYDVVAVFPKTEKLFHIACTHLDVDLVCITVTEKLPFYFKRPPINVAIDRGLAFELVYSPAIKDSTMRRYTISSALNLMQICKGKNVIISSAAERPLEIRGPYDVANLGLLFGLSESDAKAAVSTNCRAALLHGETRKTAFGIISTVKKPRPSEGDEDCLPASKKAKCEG
UniProt O75695: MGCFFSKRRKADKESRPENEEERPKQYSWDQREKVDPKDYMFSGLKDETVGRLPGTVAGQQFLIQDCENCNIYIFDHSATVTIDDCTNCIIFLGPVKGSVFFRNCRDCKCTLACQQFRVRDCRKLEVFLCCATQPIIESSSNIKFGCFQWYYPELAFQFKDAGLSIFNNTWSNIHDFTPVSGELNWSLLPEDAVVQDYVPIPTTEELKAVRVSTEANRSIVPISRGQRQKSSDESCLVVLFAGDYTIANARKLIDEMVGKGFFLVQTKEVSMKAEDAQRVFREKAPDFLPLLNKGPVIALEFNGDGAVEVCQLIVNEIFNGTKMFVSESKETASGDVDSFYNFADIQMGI
UniProt Q9UBF6, whole entry, looked up: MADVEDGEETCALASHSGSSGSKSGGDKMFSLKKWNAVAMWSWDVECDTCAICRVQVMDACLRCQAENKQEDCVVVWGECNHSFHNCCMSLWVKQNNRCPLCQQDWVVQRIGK
UniProt Q5VTR2, whole entry, looked up: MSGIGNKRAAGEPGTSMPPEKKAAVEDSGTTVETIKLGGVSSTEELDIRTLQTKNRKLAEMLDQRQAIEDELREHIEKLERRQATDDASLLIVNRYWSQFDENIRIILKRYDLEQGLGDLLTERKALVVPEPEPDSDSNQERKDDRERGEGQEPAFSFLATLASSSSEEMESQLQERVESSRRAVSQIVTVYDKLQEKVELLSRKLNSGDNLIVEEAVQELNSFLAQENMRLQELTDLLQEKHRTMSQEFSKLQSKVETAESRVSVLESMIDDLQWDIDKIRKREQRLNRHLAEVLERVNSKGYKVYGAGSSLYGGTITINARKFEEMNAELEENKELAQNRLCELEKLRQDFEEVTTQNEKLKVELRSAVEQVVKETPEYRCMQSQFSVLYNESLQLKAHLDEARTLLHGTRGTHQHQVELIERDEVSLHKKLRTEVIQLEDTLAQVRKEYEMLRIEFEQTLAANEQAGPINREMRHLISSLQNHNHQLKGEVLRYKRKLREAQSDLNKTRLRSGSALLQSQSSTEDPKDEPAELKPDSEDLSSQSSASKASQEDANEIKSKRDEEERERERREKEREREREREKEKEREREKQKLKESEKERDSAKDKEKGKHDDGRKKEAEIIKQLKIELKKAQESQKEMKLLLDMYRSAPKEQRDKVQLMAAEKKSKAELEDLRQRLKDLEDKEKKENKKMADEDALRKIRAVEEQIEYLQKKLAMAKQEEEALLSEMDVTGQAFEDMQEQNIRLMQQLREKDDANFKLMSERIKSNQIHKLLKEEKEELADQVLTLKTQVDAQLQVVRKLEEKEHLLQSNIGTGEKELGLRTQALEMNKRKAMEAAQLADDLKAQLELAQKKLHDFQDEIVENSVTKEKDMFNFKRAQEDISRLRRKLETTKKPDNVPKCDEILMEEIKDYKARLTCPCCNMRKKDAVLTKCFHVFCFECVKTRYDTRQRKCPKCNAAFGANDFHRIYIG
UniProt Q13464: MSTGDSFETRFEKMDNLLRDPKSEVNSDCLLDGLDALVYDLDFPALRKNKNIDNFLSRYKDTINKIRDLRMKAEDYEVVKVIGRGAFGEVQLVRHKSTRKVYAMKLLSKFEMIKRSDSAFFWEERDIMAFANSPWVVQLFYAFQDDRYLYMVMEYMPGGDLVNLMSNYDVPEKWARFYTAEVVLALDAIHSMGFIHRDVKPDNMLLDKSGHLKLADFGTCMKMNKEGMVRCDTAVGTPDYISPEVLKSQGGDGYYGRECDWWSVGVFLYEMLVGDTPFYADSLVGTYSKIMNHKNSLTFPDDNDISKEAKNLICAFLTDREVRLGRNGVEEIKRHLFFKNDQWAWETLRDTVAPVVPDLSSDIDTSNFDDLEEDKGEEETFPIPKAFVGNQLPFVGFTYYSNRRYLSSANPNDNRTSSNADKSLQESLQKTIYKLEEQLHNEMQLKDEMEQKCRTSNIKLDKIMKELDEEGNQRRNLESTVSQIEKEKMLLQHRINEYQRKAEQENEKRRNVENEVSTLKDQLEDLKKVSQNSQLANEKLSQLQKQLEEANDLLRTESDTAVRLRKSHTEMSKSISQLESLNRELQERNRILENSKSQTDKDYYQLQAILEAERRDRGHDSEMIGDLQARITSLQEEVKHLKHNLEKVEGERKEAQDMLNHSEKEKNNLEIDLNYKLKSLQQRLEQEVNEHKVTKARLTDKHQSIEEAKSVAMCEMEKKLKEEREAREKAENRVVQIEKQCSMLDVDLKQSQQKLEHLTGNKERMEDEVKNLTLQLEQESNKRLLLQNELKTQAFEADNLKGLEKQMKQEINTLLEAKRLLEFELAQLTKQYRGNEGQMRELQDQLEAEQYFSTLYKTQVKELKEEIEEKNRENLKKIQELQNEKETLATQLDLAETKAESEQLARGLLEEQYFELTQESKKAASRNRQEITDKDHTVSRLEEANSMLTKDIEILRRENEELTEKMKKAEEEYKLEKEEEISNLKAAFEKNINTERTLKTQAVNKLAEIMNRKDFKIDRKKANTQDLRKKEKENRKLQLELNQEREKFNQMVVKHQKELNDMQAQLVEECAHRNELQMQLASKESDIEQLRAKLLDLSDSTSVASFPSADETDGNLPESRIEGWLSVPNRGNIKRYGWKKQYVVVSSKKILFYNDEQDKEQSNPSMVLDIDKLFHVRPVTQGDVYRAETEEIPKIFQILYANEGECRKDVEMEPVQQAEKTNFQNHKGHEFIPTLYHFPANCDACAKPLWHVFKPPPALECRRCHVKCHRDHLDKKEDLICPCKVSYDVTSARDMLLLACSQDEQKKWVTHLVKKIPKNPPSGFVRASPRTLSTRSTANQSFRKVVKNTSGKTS
UniProt P27694, whole entry, looked up: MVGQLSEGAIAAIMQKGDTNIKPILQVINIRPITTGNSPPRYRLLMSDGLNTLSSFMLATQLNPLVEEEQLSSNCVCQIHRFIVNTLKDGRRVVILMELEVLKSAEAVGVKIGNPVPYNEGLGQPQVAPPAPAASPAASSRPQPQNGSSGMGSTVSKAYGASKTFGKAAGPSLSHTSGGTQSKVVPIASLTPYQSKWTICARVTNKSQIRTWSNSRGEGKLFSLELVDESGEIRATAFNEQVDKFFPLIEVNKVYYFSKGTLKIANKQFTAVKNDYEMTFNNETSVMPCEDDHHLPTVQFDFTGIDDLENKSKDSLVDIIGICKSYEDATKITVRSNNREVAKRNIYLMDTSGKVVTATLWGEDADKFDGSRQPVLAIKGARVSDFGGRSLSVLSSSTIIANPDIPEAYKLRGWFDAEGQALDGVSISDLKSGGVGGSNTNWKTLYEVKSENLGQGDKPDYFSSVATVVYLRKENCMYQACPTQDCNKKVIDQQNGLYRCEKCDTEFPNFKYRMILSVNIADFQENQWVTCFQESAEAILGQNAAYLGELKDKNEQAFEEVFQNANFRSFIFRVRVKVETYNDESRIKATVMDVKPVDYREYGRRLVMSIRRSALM

Compound: CC1Cc2ccccc2N1C(=O)C1CCCN(C1)C(=O)CCl (mixture of isomers) [TRIM25 ligand 11 (diastereomer mixture)]
Experiment: probe-labelled cysteine peptide fold change vs DMSO (competition) (log2 fold change); higher = less target engagement (more negative = stronger competition)
Settings: THP-1, incubation time: 4 h
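Note: competitive chemoproteomic profiling in live THP-1 cells with an iodoacetamide desthiobiotin (IA-DTB) probe, comparing probe-labelled peptide intensities in compound-treated cells against DMSO-treated controls.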

Target | probe-labelled cysteine peptide fold change (10 µM) | probe-labelled cysteine peptide fold change (50 µM)
RNPEP_Q9H4A4_151_VGEGPGVCWLAPEQTAGK (UniProt Q9H4A4) | 0.18 | 0.137
RPN1_P04843_477_VACITEQVLTLVNK (UniProt P04843) | 0.103 | -0.0935
RNF213_Q63HN8_418_WDSNICELHYTR (UniProt Q63HN8) | 0.212 | -0.0821
RNH1_P13489_199_DSPCQLEALK (UniProt P13489) | 0.0455 | -0.0238
RPP30_P78346_87_LTIIVSDPSHCNVLR (UniProt P78346) | -0.0822 | -0.0414
RPL5_P46777_62_VTNRDIICQIAYAR (UniProt P46777) | -0.247 | -0.143
RNH1_P13489_209_LESCGVTSDNCR (UniProt P13489) | 0.0223 | -0.0643
RP2_O75695_147_FGCFQWYYPELAFQFK (UniProt O75695) | 0.109 | 0.341
RNF7_Q9UBF6_11_ADVEDGEETCALASHSGSSGSK (UniProt Q9UBF6) | 0.209 | -0.0656
RPL17_P18621_57_QCVPFR (UniProt P18621) | 0.206 | -0.064
RNF20_Q5VTR2_945_CFHVFCFECVK (UniProt Q5VTR2) | 0.041 | 0.318
ROCK1_Q13464_714_SVAMCEMEK (UniProt Q13464) | 0.00474 | -0.0772
RNH1_P13489_85_SNELGDVGVHCVLQGLQTPSCK (UniProt P13489) | 0.0688 | -0.00405
RPA1_P27694_503_CDTEFPNFK (UniProt P27694) | -0.0985 | 0.0316
RPL7A_P62424_182_MGVPYCIIK (UniProt P62424) | 0.0148 | -0.0159
RP2_O75695_131_KLEVFLCCATQPIIESSSNIK (UniProt O75695) | 0.11 | 0.108
RNF20_Q5VTR2_924_LTCPCCNMR (UniProt Q5VTR2) | -0.0798 | 0.0702
RPN1_P04843_545_LKTEGSDLCDR (UniProt P04843) | -0.139 | -0.203
